Test [1] has as its target T1, MD2 of murine bone marrow-derived macrophages (BMDMs) (mouse) (UniProt Q9JHF9).
T1 sequence (looked up): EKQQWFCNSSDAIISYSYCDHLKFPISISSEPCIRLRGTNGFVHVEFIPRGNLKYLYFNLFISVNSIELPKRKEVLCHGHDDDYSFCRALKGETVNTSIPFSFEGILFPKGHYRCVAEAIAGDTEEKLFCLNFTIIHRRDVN
Briefly: BMDMs incubated with 10 µg/mL rFlag-PTX3 for 3 h; IP with anti-MD2, immunoblot (FIG. 1D right). (In general: In western blotting, separated proteins are transferred to a membrane and probed.)

The chains behind the UniProt entries cited, without tags or fusion partners. Residues count along the entry.
UniProt Q9QUK6, residues 26-835: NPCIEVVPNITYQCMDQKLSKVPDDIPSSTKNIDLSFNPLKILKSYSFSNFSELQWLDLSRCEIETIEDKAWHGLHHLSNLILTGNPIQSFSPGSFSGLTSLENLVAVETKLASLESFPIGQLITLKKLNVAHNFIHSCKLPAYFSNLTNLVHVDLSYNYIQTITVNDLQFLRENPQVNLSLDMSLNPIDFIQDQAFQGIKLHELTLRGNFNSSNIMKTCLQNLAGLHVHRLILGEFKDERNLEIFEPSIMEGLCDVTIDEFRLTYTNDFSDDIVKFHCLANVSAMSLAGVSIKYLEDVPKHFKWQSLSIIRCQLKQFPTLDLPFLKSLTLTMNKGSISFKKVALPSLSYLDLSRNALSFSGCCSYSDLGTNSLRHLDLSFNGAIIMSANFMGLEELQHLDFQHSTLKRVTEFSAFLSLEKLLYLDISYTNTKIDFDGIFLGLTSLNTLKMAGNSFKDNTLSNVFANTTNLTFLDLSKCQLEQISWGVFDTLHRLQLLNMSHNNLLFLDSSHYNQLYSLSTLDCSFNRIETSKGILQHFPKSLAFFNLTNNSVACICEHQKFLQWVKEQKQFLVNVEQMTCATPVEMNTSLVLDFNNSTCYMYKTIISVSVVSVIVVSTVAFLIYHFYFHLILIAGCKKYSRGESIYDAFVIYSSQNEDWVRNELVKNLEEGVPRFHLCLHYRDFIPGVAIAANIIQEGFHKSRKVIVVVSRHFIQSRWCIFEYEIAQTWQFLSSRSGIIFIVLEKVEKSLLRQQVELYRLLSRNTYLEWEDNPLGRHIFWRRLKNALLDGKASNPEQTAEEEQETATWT
UniProt P26022, residues 18-381: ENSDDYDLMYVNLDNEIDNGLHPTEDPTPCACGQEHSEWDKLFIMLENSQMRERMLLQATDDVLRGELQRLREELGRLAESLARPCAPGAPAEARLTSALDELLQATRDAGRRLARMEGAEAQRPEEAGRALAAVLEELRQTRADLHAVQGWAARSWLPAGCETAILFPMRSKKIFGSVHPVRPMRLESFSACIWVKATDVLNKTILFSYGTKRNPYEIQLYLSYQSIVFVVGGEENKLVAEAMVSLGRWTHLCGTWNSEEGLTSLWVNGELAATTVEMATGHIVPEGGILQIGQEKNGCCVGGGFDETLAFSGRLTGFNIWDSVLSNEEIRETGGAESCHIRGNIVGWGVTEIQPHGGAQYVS

Test [2] deals with TLR4 of murine bone marrow-derived macrophages (BMDMs) (mouse) (UniProt Q9QUK6). The test can be described thus: BMDMs incubated with 10 µg/mL rFlag-PTX3 for 3 h; IP with anti-TLR4, immunoblot (FIG. 1D right).

In US20260159546A1, “PHARMACEUTICAL COMPOSITION FOR TREATING SEPSIS INCLUDING DUAL ALARMIN-RECEPTOR-SPECIFIC TARGETING PEPTIDE” (Industry-University Cooperation Foundation Hanyang …, priority 2024, published 2026) one finds binding data, which are given here for one substance.

Results are given in words; binding and its absence hold for the method and conditions named. Some binding calls cover weakened binding; strength is not graded here.

“recombinant Flag-PTX3 (from UniProt P26022 18-381) (ligand)”: the binding entry in test [1] and in test [2] was “binds” throughout.
